Data reported in article PMC12514575.
No constants are given. Whether binding was seen depends on the method and setting. In cells and extracts the contact can be indirect. Some entries that bind do so weakly or less than the wild type. Where a sequence is shown, tags or fusion partners need not be part of it.

The chains behind the UniProt entries cited, without tags or fusion partners.
UniProt Q9NYV6: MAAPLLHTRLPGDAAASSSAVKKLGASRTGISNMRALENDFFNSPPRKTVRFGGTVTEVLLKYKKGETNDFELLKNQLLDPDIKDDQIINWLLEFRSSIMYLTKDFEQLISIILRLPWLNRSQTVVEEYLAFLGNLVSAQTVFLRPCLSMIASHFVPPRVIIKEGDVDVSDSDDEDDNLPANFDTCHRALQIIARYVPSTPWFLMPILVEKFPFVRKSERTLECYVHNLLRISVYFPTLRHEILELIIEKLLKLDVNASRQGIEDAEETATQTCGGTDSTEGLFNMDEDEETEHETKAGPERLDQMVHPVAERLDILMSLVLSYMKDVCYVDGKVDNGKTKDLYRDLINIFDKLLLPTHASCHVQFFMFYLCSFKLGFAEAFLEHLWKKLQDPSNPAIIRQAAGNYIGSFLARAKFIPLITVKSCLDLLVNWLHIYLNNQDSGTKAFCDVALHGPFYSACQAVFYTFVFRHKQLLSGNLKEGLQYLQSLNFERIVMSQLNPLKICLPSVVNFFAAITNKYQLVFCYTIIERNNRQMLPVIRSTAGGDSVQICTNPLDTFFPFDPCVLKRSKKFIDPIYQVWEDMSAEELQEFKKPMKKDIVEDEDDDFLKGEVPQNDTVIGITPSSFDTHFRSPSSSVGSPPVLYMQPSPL

T1: FLAG-tagged WT full-length DCAF13 (DDB1- and CUL4-associated factor 13) (UniProt Q9NV06)
T1 sequence: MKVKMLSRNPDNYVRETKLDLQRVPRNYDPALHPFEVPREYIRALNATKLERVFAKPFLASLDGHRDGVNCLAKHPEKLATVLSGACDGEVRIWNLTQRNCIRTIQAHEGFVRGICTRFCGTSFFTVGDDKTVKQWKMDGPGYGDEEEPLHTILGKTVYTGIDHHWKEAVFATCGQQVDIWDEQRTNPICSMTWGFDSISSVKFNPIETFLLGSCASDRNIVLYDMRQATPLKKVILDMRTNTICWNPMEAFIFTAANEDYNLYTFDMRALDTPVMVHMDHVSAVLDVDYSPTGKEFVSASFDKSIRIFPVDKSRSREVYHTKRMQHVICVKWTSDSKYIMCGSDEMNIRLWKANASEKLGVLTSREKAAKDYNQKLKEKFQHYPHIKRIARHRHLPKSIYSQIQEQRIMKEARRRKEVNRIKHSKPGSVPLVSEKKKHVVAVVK

B1: TAF1A, a subunit of selective factor 1 (SL1) (protein, UniProt Q15573 1-450)
chain: MSDFSEELKGPVTDDEEVETSVLSGAGMHFPWLQTYVETVAIGGKRRKDFAQTTSACLSFIQEALLKHQWQQAAEYMYSYFQTLEDSDSYKRQAAPEIIWKLGSEILFYHPKSNMESFNTFANRMKNIGVMNYLKISLQHALYLLHHGMLKDAKRNLSEAETWRHGENTSSREILINLIQAYKGLLQYYTWSEKKMELSKLDKDDYAYNAVAQDVFNHSWKTSANISALIKIPGVWDPFVKSYVEMLEFYGDRDGAQEVLTNYAYDEKFPSNPNAHIYLYNFLKRQKAPRSKLISVLKILYQIVPSHKLMLEFHTLLRKSEKEEHRKLGLEVLFGVLDFAGCTKNITAWKYLAKYLKNILMGNHLAWVQEEWNSRKNWWPGFHFSYFWAKSDWKEDTALACEKAFVAGLLLGKGCRYFRYILKQDHQILGKKIKRMKRSVKKYSIVNPRL

Molecular target: T1, FLAG-tagged WT full-length DCAF13 (DDB1- and CUL4-associated factor 13)
Test: co-IP; lysate of 293T cells overexpressing FLAG-DCAF13 or FLAG-DCAF13^SOF1Δ; anti-FLAG or IgG on Protein A/G magnetic beads, overnight at 4 °C, six washes with PBS + 0.5% Tween-20; western blot

| Molecule | binding |
| --- | --- |
| TIF-IA (from UniProt Q9NYV6 1-651) | no binding |
| B1 | binds |
